No constants are given. Whether binding was seen depends on the method and setting. In cells and extracts the contact can be indirect. Some results given as binding are weak or reduced against the parent protein; the word gives no strength.
Target: ubiquitin-conjugating enzyme E2 K (UBE2K) (human (endogenous in H9 hESCs)) (UniProt P61086)
Test: co-IP; immunoprecipitation with anti-UBE2K antibody (control: anti-FLAG antibody) from H9 hESC lysate in modified RIPA buffer (50 mM Tris-HCl pH 7.4, 150 mM NaCl, 1 % IgPal, 0.25% sodium deoxycholate, 1 mM EDTA), Protein A magnetic beads, 4 °C; western blot

By UniProt entry, the sequences of proteins in these tests, tags left out.
UniProt P61086: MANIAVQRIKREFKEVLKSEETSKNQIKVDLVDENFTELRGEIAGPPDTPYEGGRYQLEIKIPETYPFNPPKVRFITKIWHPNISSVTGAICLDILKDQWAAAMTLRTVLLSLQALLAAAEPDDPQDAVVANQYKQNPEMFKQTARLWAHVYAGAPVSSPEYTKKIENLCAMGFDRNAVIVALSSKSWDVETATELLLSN
UniProt P42858: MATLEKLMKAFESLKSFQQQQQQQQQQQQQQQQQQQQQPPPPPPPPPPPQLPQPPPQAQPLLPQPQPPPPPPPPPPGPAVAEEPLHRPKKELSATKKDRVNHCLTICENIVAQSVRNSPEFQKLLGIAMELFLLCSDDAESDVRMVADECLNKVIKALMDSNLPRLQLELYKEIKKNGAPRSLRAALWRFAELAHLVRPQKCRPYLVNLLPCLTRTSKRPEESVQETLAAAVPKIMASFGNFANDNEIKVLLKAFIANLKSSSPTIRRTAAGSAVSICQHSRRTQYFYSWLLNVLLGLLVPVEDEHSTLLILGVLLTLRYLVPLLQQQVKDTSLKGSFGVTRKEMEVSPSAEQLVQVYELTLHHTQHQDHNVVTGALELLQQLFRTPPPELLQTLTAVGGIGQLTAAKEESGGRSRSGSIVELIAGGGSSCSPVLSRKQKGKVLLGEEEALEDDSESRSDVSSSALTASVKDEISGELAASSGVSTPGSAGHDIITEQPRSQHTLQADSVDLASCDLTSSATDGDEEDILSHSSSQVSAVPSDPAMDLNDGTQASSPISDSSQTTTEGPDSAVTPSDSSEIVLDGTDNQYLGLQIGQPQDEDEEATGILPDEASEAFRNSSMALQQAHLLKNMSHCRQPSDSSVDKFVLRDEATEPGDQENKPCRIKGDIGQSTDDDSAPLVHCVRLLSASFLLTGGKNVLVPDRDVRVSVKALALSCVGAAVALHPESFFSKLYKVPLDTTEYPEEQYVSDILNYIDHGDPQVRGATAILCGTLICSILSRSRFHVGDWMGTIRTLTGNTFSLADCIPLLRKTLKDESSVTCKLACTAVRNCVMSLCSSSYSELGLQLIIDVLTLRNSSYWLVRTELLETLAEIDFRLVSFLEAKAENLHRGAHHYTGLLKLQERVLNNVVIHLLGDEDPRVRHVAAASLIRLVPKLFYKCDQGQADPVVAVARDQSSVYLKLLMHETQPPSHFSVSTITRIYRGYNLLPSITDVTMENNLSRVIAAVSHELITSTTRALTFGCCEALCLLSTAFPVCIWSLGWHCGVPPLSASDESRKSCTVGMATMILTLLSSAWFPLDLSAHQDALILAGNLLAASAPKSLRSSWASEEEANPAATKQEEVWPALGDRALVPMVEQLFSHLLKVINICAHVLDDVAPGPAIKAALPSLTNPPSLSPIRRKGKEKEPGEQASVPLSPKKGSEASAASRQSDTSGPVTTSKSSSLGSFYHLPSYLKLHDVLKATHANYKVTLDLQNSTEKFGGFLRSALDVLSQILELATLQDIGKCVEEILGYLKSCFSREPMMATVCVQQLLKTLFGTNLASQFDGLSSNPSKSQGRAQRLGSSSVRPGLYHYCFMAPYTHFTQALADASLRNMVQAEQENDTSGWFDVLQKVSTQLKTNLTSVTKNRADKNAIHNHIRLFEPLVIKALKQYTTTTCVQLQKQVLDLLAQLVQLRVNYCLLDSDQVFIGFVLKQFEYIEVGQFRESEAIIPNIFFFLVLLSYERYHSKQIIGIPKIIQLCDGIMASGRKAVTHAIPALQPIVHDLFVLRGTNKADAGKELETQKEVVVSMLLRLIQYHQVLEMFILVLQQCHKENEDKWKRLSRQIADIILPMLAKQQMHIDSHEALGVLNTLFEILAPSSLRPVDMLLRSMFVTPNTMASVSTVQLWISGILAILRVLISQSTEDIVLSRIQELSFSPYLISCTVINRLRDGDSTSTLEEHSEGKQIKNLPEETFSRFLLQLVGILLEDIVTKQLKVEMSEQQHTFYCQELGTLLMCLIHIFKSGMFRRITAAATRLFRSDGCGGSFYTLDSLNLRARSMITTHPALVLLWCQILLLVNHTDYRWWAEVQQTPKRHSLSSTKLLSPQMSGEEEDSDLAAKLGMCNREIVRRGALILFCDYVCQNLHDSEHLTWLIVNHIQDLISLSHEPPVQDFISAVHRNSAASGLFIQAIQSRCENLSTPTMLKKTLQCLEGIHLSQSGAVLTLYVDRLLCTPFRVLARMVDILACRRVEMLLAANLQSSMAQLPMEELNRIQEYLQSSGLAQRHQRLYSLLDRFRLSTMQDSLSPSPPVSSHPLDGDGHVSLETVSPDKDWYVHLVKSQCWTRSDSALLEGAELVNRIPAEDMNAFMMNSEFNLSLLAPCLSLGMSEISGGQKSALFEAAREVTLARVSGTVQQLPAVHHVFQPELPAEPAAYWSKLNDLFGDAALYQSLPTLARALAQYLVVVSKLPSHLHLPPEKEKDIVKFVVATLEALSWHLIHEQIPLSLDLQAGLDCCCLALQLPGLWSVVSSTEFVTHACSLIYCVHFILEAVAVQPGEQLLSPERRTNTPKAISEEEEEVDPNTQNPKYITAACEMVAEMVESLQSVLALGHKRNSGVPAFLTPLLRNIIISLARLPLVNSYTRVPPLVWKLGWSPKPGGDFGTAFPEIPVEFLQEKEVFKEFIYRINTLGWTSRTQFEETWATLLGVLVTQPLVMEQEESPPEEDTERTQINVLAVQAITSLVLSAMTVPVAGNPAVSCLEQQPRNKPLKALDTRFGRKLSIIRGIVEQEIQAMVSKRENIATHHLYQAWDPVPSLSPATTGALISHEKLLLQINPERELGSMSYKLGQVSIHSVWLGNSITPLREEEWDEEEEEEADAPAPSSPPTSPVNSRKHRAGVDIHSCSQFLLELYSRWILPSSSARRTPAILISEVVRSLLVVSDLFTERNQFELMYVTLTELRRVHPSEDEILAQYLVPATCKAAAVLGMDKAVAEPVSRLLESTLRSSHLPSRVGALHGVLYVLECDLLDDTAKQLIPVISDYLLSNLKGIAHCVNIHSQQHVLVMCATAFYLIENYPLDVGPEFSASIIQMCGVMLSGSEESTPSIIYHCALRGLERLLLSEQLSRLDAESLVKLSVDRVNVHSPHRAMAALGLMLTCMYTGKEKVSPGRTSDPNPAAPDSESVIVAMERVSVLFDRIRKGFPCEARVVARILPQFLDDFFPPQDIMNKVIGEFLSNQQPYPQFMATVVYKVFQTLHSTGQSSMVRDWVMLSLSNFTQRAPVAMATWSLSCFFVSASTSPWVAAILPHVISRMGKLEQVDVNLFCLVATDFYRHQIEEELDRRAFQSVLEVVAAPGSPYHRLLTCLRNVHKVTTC

binding: binds
Substance: huntingtin protein (HTT) (from UniProt P42858 1-3142)
